In PubChem BioAssay AID330 (DTP/NCI, 2004):
The list does not hold the whole screen: its compounds were picked by chemical class. Not every dose and run of a compound is shown. T/C gives the treated animals as a percentage of the vehicle group. Where survival is the endpoint, this PubChem deposit counts one and a half times the control or more as active, and values a quarter to a half above the control carry no call in these data; other NCI protocols may use other cut-offs. Schedules are NCI's codes, taken here to give the interval after Q, in days (D) or hours (H), and the number of doses after X. Some T/C values are marked as having no survivor count here; that says nothing about deaths at the dose. Signs of the kind (2×) stand for listed records that agree. Some entries were tested several times; the values are given in rising order.

System: P388 leukemia ip, CD2F1 mice, survival T/C
Assay: NCI In Vivo Anticancer Drug Screen. Data for tumor model P388 Leukemia (intraperitoneal) in CD2F1 (CDF1) mice
Conditions: T/C endpoint: median survival time, higher T/C = longer survival

In the case of `CC(=O)OCC12CCC(C)=CC1OC1C(O)C(OC(C)=O)C2(C)C12CO2` (configuration not stated), the T/C (dose: 1.0 mg/kg/injection, schedule: Q01DX005 (iv), vehicle: saline) is reported as 151 % of control [survivor count not shown], the T/C (dose: 1.0 mg/kg/injection, schedule: Q01DX009 (ip), vehicle: saline + alcohol, evaluated on day 30) is reported as 166 [survivor count not shown], 172 [survivor count not shown], 187 % of control [survivor count not shown] and the T/C (dose: 1.0 mg/kg/injection, schedule: Q01DX009 (ip), vehicle: saline + alcohol, evaluated on day 35) is reported as 201 % of control [survivor count not shown]. The T/C (dose: 1.0 mg/kg/injection, schedule: Q01DX009 (ip), vehicle: saline sonified) was 129 % of control [survivor count not shown], the T/C (dose: 1.0 mg/kg/injection, schedule: Q01DX009 (ip), vehicle: saline with Tween-80) was 142 [survivor count not shown], 167 [survivor count not shown], 176 % of control [survivor count not shown] and the T/C (dose: 1.0 mg/kg/injection, schedule: Q01DX009 (ip), vehicle: saline, evaluated on day 5) was 181 [survivor count not shown] and 187 % of control [survivor count not shown]. The T/C (dose: 1.0 mg/kg/injection, schedule: Q01DX009 (ip), vehicle: saline, evaluated on day 30) was 100 [survivor count not shown], 133 [survivor count not shown], 155 [survivor count not shown], 162 [survivor count not shown], 173 [survivor count not shown], 174 [survivor count not shown], 175 [survivor count not shown], 183 [survivor count not shown], 217 % of control [survivor count not shown], the T/C (dose: 1.0 mg/kg/injection, schedule: Q01DX009 (ip), vehicle: saline, evaluated on day 60) was 170 % of control [survivor count not shown] and the T/C (dose: 1.0 mg/kg/injection, schedule: Q01DX009 (ip), vehicle: water, evaluated on day 30) was 158 [survivor count not shown], 163 [survivor count not shown], 172 [survivor count not shown], 175 [survivor count not shown], 183 % of control [survivor count not shown]. The T/C (dose: 1.0 mg/kg/injection, schedule: Q01DX009 (ip), vehicle: water, evaluated on day 45) was 187 % of control [survivor count not shown], the T/C (dose: 1.0 mg/kg/injection, schedule: Q01DX009 (iv), vehicle: saline) was 163 % of control [survivor count not shown] and the T/C (dose: 1.0 mg/kg/injection, schedule: Q01DX009 (oral), vehicle: saline) was 130 % of control [survivor count not shown]. For the same compound, the T/C (dose: 1.0 mg/kg/injection, schedule: Q01DX009 (sc), vehicle: saline) was 170 % of control [survivor count not shown], the T/C (dose: 1.0 mg/kg/injection, schedule: Q03HX024 (ip), vehicle: saline) was 190 % of control [survivor count not shown] and the T/C (dose: 1.94 mg/kg/injection, schedule: Q04DX003 (ip), vehicle: saline) was 146 % of control [survivor count not shown]. The T/C (dose: 2.0 mg/kg/injection, schedule: Q01DX001 (ip), vehicle: saline) was 118 % of control [survivor count not shown], the T/C (dose: 2.0 mg/kg/injection, schedule: Q01DX005 (ip), vehicle: saline) was 158 % of control [survivor count not shown] and the T/C (dose: 2.0 mg/kg/injection, schedule: Q01DX005 (ip), vehicle: water) was 166 [survivor count not shown] and 175 % of control [survivor count not shown]. The T/C (dose: 2.0 mg/kg/injection, schedule: Q01DX005 (iv), vehicle: saline) was 98 % of control [survivor count not shown], the T/C (dose: 2.0 mg/kg/injection, schedule: Q01DX009 (ip), vehicle: saline + alcohol, evaluated on day 30) was 187 [survivor count not shown], 188 [survivor count not shown], 189 % of control [survivor count not shown] and the T/C (dose: 2.0 mg/kg/injection, schedule: Q01DX009 (ip), vehicle: saline + alcohol, evaluated on day 35) was 192 % of control [survivor count not shown]. The T/C (dose: 2.0 mg/kg/injection, schedule: Q01DX009 (ip), vehicle: saline with Tween-80) was 151 [survivor count not shown], 169 [survivor count not shown], 209 % of control [survivor count not shown], the T/C (dose: 2.0 mg/kg/injection, schedule: Q01DX009 (ip), vehicle: saline, evaluated on day 5) was 178 [survivor count not shown] and 229 % of control [survivor count not shown] and the T/C (dose: 2.0 mg/kg/injection, schedule: Q01DX009 (ip), vehicle: saline, evaluated on day 30) was 174 [survivor count not shown], 183 [survivor count not shown], 184 [survivor count not shown], 189 [survivor count not shown], 191 [survivor count not shown], 200 [survivor count not shown], 202 % of control [survivor count not shown]. The T/C (dose: 2.0 mg/kg/injection, schedule: Q01DX009 (ip), vehicle: water, evaluated on day 30) was 187 [survivor count not shown], 199 [survivor count not shown] (2×), 207 [survivor count not shown], 211 % of control [survivor count not shown], the T/C (dose: 2.0 mg/kg/injection, schedule: Q01DX009 (ip), vehicle: water, evaluated on day 45) was 202 % of control [survivor count not shown] and the T/C (dose: 2.0 mg/kg/injection, schedule: Q01DX009 (oral), vehicle: saline) was 190 % of control [survivor count not shown]. For the same compound, the T/C (dose: 2.0 mg/kg/injection, schedule: Q04DX002 (ip), vehicle: saline + alcohol) was 120 [survivor count not shown], 122 [survivor count not shown], 123 [survivor count not shown], 126 [survivor count not shown], 129 % of control [survivor count not shown], the T/C (dose: 2.0 mg/kg/injection, schedule: Q04DX003 (ip), vehicle: saline) was 136 % of control [survivor count not shown] and the T/C (dose: 2.59 mg/kg/injection, schedule: Q04DX003 (ip), vehicle: saline) was 142 % of control [survivor count not shown]. The T/C (dose: 4.0 mg/kg/injection, schedule: Q01DX001 (ip), vehicle: saline) was 122 [survivor count not shown] and 123 % of control [survivor count not shown], the T/C (dose: 4.0 mg/kg/injection, schedule: Q01DX001 (iv), vehicle: saline) was 125 % of control [survivor count not shown] and the T/C (dose: 4.0 mg/kg/injection, schedule: Q01DX001 (oral), vehicle: saline) was 125 % of control [survivor count not shown]. The T/C (dose: 4.0 mg/kg/injection, schedule: Q01DX001 (sc), vehicle: saline) was 113 % of control [survivor count not shown], the T/C (dose: 4.0 mg/kg/injection, schedule: Q01DX005 (ip), vehicle: saline) was 178 % of control [survivor count not shown] and the T/C (dose: 4.0 mg/kg/injection, schedule: Q01DX005 (ip), vehicle: water) was 177 [survivor count not shown] and 180 % of control [survivor count not shown]. For the same compound, the T/C (dose: 4.0 mg/kg/injection, schedule: Q01DX009 (ip), vehicle: saline + alcohol, evaluated on day 30) was 100 [survivor count not shown], 112 [survivor count not shown], 198 % of control [survivor count not shown], the T/C (dose: 4.0 mg/kg/injection, schedule: Q01DX009 (ip), vehicle: saline + alcohol, evaluated on day 35) was 122 % of control [survivor count not shown] and the T/C (dose: 4.0 mg/kg/injection, schedule: Q01DX009 (ip), vehicle: saline with Tween-80) was 169 [survivor count not shown], 185 [survivor count not shown], 219 % of control [survivor count not shown]. The T/C (dose: 4.0 mg/kg/injection, schedule: Q01DX009 (ip), vehicle: saline, evaluated on day 5) was 86 % of control [survivor count not shown] (2×), the T/C (dose: 4.0 mg/kg/injection, schedule: Q01DX009 (ip), vehicle: saline, evaluated on day 30) was 88 [survivor count not shown], 97 [survivor count not shown], 198 [survivor count not shown], 211 [survivor count not shown], 214 [survivor count not shown], 232 % of control [survivor count not shown] and the T/C (dose: 4.0 mg/kg/injection, schedule: Q01DX009 (ip), vehicle: saline, evaluated on day 60) was 155 % of control [survivor count not shown]. For the same compound, the T/C (dose: 4.0 mg/kg/injection, schedule: Q01DX009 (ip), vehicle: water) was 86 [survivor count not shown] and 113 % of control [survivor count not shown], the T/C (dose: 4.0 mg/kg/injection, schedule: Q01DX009 (oral), vehicle: saline) was 110 % of control [survivor count not shown] and the T/C (dose: 4.0 mg/kg/injection, schedule: Q04DX002 (ip), vehicle: saline + alcohol) was 127 [survivor count not shown] (2×), 128 [survivor count not shown], 129 [survivor count not shown], 132 % of control [survivor count not shown]. For the same compound, the T/C (dose: 4.0 mg/kg/injection, schedule: Q04DX003 (ip), vehicle: saline) was 145 [survivor count not shown] and 154 % of control [survivor count not shown], the T/C (dose: 4.0 mg/kg/injection, schedule: Q08DX002 (ip), vehicle: saline) was 118 [survivor count not shown] and 127 % of control [survivor count not shown] and the T/C (dose: 4.32 mg/kg/injection, schedule: Q04DX003 (ip), vehicle: saline) was 149 % of control [survivor count not shown]. The T/C (dose: 5.4 mg/kg/injection, schedule: Q04DX003 (ip), vehicle: saline) was 147 % of control [survivor count not shown], the T/C (dose: 7.2 mg/kg/injection, schedule: Q04DX003 (ip), vehicle: saline) was 160 % of control [survivor count not shown] and the T/C (dose: 8.0 mg/kg/injection, schedule: Q01DX001 (ip), vehicle: saline) was 123 % of control [survivor count not shown]. The T/C (dose: 8.0 mg/kg/injection, schedule: Q01DX001 (iv), vehicle: saline) was 130 % of control [survivor count not shown], the T/C (dose: 8.0 mg/kg/injection, schedule: Q04DX002 (ip), vehicle: saline + alcohol) was 122 [survivor count not shown], 127 [survivor count not shown] (2×), 135 % of control [survivor count not shown] and the T/C (dose: 8.0 mg/kg/injection, schedule: Q04DX003 (ip), vehicle: saline) was 145 % of control [survivor count not shown] (2×). The T/C (dose: 8.0 mg/kg/injection, schedule: Q08DX002 (ip), vehicle: saline) was 136 % of control [survivor count not shown] (2×), the T/C (dose: 16.0 mg/kg/injection, schedule: Q04DX002 (ip), vehicle: saline + alcohol) was 142 % of control [survivor count not shown] and the T/C (dose: 16.0 mg/kg/injection, schedule: Q08DX002 (ip), vehicle: saline) was 90 % of control [survivor count not shown].
